These results are taken from PubChem BioAssay AID504706 (National Center for Advancing Translational Sciences (NCATS), 2011).

About 200 (0.062%) of roughly 320,000 compounds were called active. Inconclusive results (about 6%) are left out. Calls follow the shape of the dose curve; as a rule, active = well fitted activation curve with a large enough effect; inconclusive = small, poorly fitted or top-dose-only effect; inactive = no such curve, though single readings can be large or run the other way. This is a selection; strong and weak results do not stand in their true shares. Where no call is shown, the source filed none.
Potency is read from the fitted curve at half-maximal effect.

The assay in a line: qHTS assay for re-activators of p53 using a Luc reporter. Also: nearly all actives have a fitted effect of over 45% in size. As to activity change, positive = activation: % of control where 0% means no effect. The settings on record: H1299 p53-A138V BP100-luciferase reporter, luminescence, 24 h; activity change, positive = activation: at 92.2 µM (top of the series). The source says:
The p53 tumor suppressor plays a key role in suppression of tumorigenesis and in human carcinogenesis. It is frequently found inactivated in human cancers, mainly by point mutation. These point mutations are found in a wide variety of human cancers and a majority of them affect the DNA binding domain of the protein. The point mutations either alter native p53 conformation or abolish DNA contact. Additionally, cancer cells with p53 mutations are more resistant to chemo-radiation therapies. In order to find activators to reactivate this important protein, a cell-based screen for p53-dependent luciferase-reporter expression was developed. A p53-null H1299 lung cancer cell line was stably co-transfected with a temperature sensitive p53 mutant, p53-A138V, and a p53-responsive BP100-luciferase reporter. This cell model has previously been characterized in a gene chip profiling experiment for p53 activation. By lowering the culture temperature from 37 deg C (mutant p53 conformation) to 32 deg C (w.t. p53 conformation), a 30-60 fold increase in activation of luciferase activity is observed. At assay temperate, 37 deg C, basal reporter expression is very low and after the addition of detection reagent, a luminescent read-out is carried out. NIH Chemical Genomics Center [NCGC] NIH Molecular Libraries Probe Production Centers Network [MLPCN] MLPCN Grant: DA031088-01A1 Assay Provider (PI): Yi Sung, University of Michigan at Ann Arbor
5ul of 1000 cells per well are dispensed in all wells except column 4, into white solid-bottom TC-treated Kalypsys plates. The cells are kept in Opti-MEM and supplemented with 10% FBS and dispensed using a Multidrop (Thermo). Then using the Kalypsys pin-tool, 23nl of compounds are pinned. The compounds are starting concentration at 10mM, with 1:5 dilution, 4 points, and the control compound nocodazole is pinned in column 1 at 25mM, 1:3 dilution, in duplicate, 25mM nocodazole is pinned in column 2. Please note, all concentrations are working concentrations. 5ul of 1pM purified luciferase enzyme is dispensed using the Kalypsys dispenser in column 4. Plates are incubated for 24 hrs at 37 deg C, 5% CO2, and 95% humidity. Then 4ul of the detection reagent Amplite (ABD Bioquest) is added using the Kalypsys dispenser. Plates are incubated for 10 min at ambient room temperature and are then read on the ViewLux (Perkin Elmer) using a clear filter for a luminescent read-out.
For orientation: Quantitative high-throughput screening tests each substance at several concentrations.
As for `CNC(=O)Oc1cccc(-c2cn3cc(Cl)ccc3n2)c1`, the activity change, positive = activation was 134%.

With `COc1ccccc1CN1CCCC(C(=O)c2ccccc2OC)C1` (stereo not given), the “activity change, positive = activation” value is inactive: -37.4%. Turning to `CC(=NCCN1CCCCC1)c1c(O)[nH]c(=O)[nH]c1=O`, the activity change, positive = activation was 29.9%.

As for `O=C(Nc1ccc(Cl)cc1)Nc1ccc(Cl)c(Cl)c1`, the Potency was active: 28.2 µM. Turning to `COc1ccc(CCN2CCCC(CN(C)C(=O)c3cc(C)oc3C)C2)cc1` (stereo not given), the Potency was active: 35.5 µM. As to `Cc1cc(OCCCC(=O)NCc2cccs2)ccc1Cl`, the activity change, positive = activation turned out to be 32.6%. Turning to `CN1CCN(c2c[nH]c(=O)[nH]c2=O)CC1`, the activity change, positive = activation stood at 37.6%.

On to `C[C@]12CCC(=O)C(O)=C1CC[C@@H]1[C@@H]2CC[C@]2(C)C(=O)CC[C@@H]12`, for which the activity change, positive = activation amounted to 41.3%. For the molecule `CCn1nc(-c2ccccc2)nc2c(=O)n(C)c(=O)nc1-2`, the activity change, positive = activation is -39%. Take `OC(c1ccccc1)(c1ccccc1)C1CCCN1` (stereo not given): the activity change, positive = activation was found to be 37.5%.
